Assay results as given in patent publication US20160090556A1, “PRODUCTS COMPRISING MALODOR REDUCTION MATERIALS” (The Procter & Gamble Company, priority 2014, published 2016).

Experiment: Melamine formaldehyde PMC leakage
Conditions: not given

| Compound | Melamine formaldehyde PMC leakage (Comment Code J) |
| --- | --- |
| CCCCCCCCCC(=O)O [Material 582] | J (Melamine formaldehyde PMC leakage less than or equal to 5%) |
| CCCCCC1C(=O)CCC1CC(=O)OC (stereo not drawn) [Material 1083] | J (Melamine formaldehyde PMC leakage less than or equal to 5%) |
| Cc1ccc(CC(C)C=O)cc1 (stereo not drawn) [Material 742] | J (Melamine formaldehyde PMC leakage less than or equal to 5%) |
| CC1CC(C)(C)OC(Cc2ccccc2)O1 (stereo not drawn) [Material 1003] | J (Melamine formaldehyde PMC leakage less than or equal to 5%) |
| O=C(Oc1ccccc1)c1ccccc1 [Material 965] | J (Melamine formaldehyde PMC leakage less than or equal to 5%) |
| C=CC(=C)CCC=C(C)CCC=C(C)C [Material 628] | J (Melamine formaldehyde PMC leakage less than or equal to 5%) |
| C=CCOC(=O)COCCC(C)C [Material 748] | J (Melamine formaldehyde PMC leakage less than or equal to 5%) |
| Cc1ccc(OC(=O)C(C)C)cc1 [Material 937] | J (Melamine formaldehyde PMC leakage less than or equal to 5%) |
| C/C(=C/C#N)CCc1ccccc1 [Material 892] | J (Melamine formaldehyde PMC leakage less than or equal to 5%) |
| O=C1CCCC=CCCCCCCCCCC1 [Material 788] | J (Melamine formaldehyde PMC leakage less than or equal to 5%) |
| COC(=O)c1ccccc1N=CC1CC(C)=CC(C)C1 (stereo not drawn) [Material 754] | J (Melamine formaldehyde PMC leakage less than or equal to 5%) |
| C=C(C)C1CCC(C)C2=C(C1)C(C)CC2 (stereo not drawn) [Material 709] | J (Melamine formaldehyde PMC leakage less than or equal to 5%) |
| CCCCCCC[C@H]1CCC(=O)O1 [Material 885] | J (Melamine formaldehyde PMC leakage less than or equal to 5%) |
| CC1=C2CCC(C)C2CC(C(C)(C)O)CC1 (stereo not drawn) [Material 920] | J (Melamine formaldehyde PMC leakage less than or equal to 5%) |
| C[C@@H]1CCC=C2CC[C@@H](C(C)(C)O)C[C@]21C [Material 1107] | J (Melamine formaldehyde PMC leakage less than or equal to 5%) |
| C=CCCCCCCCCC(=O)OCCCC [Material 599] | J (Melamine formaldehyde PMC leakage less than or equal to 5%) |
| C=C1CCC2CC1C2(C)C (stereo not drawn) [Material 618] | J (Melamine formaldehyde PMC leakage less than or equal to 5%) |

Same assay, conditions: class code letter within Comment Code

| Compound | Melamine formaldehyde PMC leakage (Comment Code J) |
| --- | --- |
| CCCCCCC1CCCC1=O (stereo not drawn) [Material 189] | J (Melamine formaldehyde PMC leakage less than or equal to 5%) |
| O=C1CCCCCCCC=CCCCCCCO1 [Material 242] | J (Melamine formaldehyde PMC leakage less than or equal to 5%) |
| CC=CC(=O)OC(C)C1CCCCC1 (stereo not drawn) [Material 475] | J (Melamine formaldehyde PMC leakage less than or equal to 5%) |
| CC1=CC2C(=C(C)CCC2C(C)C)CC1 (stereo not drawn) [Material 467] | J (Melamine formaldehyde PMC leakage less than or equal to 5%) |
| CCCCCCCCCC(C)=O [Material 102] | J (Melamine formaldehyde PMC leakage less than or equal to 5%) |
| O=C1CCC=CCCCCCCCCCC1 [Material 372] | J (Melamine formaldehyde PMC leakage less than or equal to 5%) |
| CCCCCCCCCCCCCCCCCC(=O)OC [Material 100] | J (Melamine formaldehyde PMC leakage less than or equal to 5%) |
| CC(C=O)Cc1ccc(C(C)C)cc1 (stereo not drawn) [Material 478] | J (Melamine formaldehyde PMC leakage less than or equal to 5%) |
| CCCCCCCCCCOC(=O)CC [Material 471] | J (Melamine formaldehyde PMC leakage less than or equal to 5%) |
| CC(=O)OCCC1=CCC2CC1C2(C)C (stereo not drawn) [Material 47] | J (Melamine formaldehyde PMC leakage less than or equal to 5%) |
| CC(C)C(=O)OCC=Cc1ccccc1 [Material 550] | J (Melamine formaldehyde PMC leakage less than or equal to 5%) |
| CCCCCCCCCCCC(OC)OC [Material 421] | J (Melamine formaldehyde PMC leakage less than or equal to 5%) |
| CCOC(C=C(C)CCC=C(C)C)OCC [Material 521] | J (Melamine formaldehyde PMC leakage less than or equal to 5%) |
| CCC=CCC1C(=O)CCC1CC(=O)OC (stereo not drawn) [Material 112] | J (Melamine formaldehyde PMC leakage less than or equal to 5%) |
| CCCCCCCCCC(OCC)OCC [Material 473] | J (Melamine formaldehyde PMC leakage less than or equal to 5%) |
| CC(=O)OCC1CC=C(CCC=C(C)C)CC1 (stereo not drawn) [Material 74] | J (Melamine formaldehyde PMC leakage less than or equal to 5%) |
| CCCCCCC(C=O)=Cc1ccccc1 [Material 269] | J (Melamine formaldehyde PMC leakage less than or equal to 5%) |
| CCOC(=O)C1OC1(C)c1ccccc1 (stereo not drawn) [Material 377] | J (Melamine formaldehyde PMC leakage less than or equal to 5%) |
| CCCCCCCCCCCCCCCC(=O)OCC=C(C)CCC=C(C)C [Material 276] | J (Melamine formaldehyde PMC leakage less than or equal to 5%) |
| O=C1CCCCCCCCCOCCCCCO1 [Material 76] | J (Melamine formaldehyde PMC leakage less than or equal to 5%) |
| CC/C=C\CCOC(=O)C/C=C\CC [Material 534] | J (Melamine formaldehyde PMC leakage less than or equal to 5%) |
| C=C1CCOC(c2ccc(O)c(OC)c2)C1 (stereo not drawn) [Material 373] | J (Melamine formaldehyde PMC leakage less than or equal to 5%) |

Same assay, conditions: code letter J

| Compound | Comment Code: Melamine formaldehyde PMC leakage |
| --- | --- |
| C=CC(C)(CCC=C(C)C)OC(=O)CCC (stereo not drawn) [Material 151] | J (Melamine formaldehyde PMC leakage less than or equal to 5%) |
| C/C=C(\C)C(=O)OCCc1ccccc1 [Material 960] | J (Melamine formaldehyde PMC leakage less than or equal to 5%) |
| C=CC(C)(CCC=C(C)C)OC=O (stereo not drawn) [Material 150] | J (Melamine formaldehyde PMC leakage less than or equal to 5%) |
| O=C1CCCC=CCCCCCCCCCC1 [Material 788] | J (Melamine formaldehyde PMC leakage less than or equal to 5%) |
| CC(C)=CCCC(C)CCOC(=O)Cc1ccccc1 (stereo not drawn) [Material 510] | J (Melamine formaldehyde PMC leakage less than or equal to 5%) |
| C[C@@H]1CCC=C2CC[C@@H](C(C)(C)O)C[C@]21C [Material 1107] | J (Melamine formaldehyde PMC leakage less than or equal to 5%) |
